Some entries repeat one wording, which the source may state once for all of them.
Test: H2S generation in buffer, liver homogenate, and homogenate plus PAG
Parameters: species or system rat
Conditions: 1 mM compound, FIG. 21; for H2S release in the presence of tissue (liver homogenate): 10% (wt/vol) rat liver homogenate, compared with buffer; for H2S generation in liver homogenate with PAG (DL-propargylglycine): PAG 2 mM, inhibitor of cystathionine γ-lyase; for H2S release in buffer: potassium phosphate buffer pH 7.4, 37° C.

| Structure (SMILES) | H2S release in the presence of tissue (liver homogenate) | H2S generation in liver homogenate with PAG (DL-propargylglycine) | H2S release in buffer |
| --- | --- | --- | --- |
| NC(=S)c1ccc(OC(=O)c2cc(N)ccc2O)cc1 [Compound XXVII, 5-Amino-2-hydroxy-benzoic acid 4-thiocarbamoyl-phenyl ester] | greater when in the presence of tissue | lack of effect | release H2S spontaneously (in buffer) |
| Oc1ccc(-c2cc(=S)ss2)cc1 [ADT-OH, 5-p-hydroxyphenyl-1,2-dithione-3-thione, reference compound] |  |  | did not release significant H2S |
| N[C@@H](CS)C(=O)O [L-cysteine, reference compound] |  | markedly inhibited by PAG | did not release significant H2S |
| Nc1ccc(O)c(C(=O)Oc2ccc(-c3cc(=S)ss3)cc2)c1 [Compound XXXV, 5-Amino-2-hydroxy-benzoic acid 4-(5-thioxo-5H-[1,2]dithiol-3-yl)-phenyl ester] | greater when in the presence of tissue | lack of effect | release H2S spontaneously (in buffer) |
| NC(=S)c1ccc(O)cc1 [Compound 4-HTB, 4-hydroxythiobenzamide, reference compound] |  |  | did not release significant H2S |

Reference: patent US20110098257A1, “DERIVATIVES OF 4- OR 5-AMINOSALICYLIC ACID” (ANTIBE THERAPEUTICS INC., priority 2005, published 2011)
